Laboratory results: publication PMC8560880
Results are given in words; binding and its absence hold for the method and conditions named. In cells and extracts the contact can be indirect.

The chains behind the UniProt entries cited, without tags or fusion partners.
UniProt P62993: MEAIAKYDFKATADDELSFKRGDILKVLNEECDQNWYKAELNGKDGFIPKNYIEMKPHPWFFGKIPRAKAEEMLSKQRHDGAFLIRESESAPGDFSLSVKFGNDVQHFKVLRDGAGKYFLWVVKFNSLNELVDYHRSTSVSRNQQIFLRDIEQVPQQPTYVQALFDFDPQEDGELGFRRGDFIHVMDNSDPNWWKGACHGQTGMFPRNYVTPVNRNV

Key:
GRB2 = GRB2 (UniProt P62993); assay: co-IP; co-immunoprecipitation assays from cells, with EGF stimulation (Supplementary Fig. S4d); bait and cells not given
EGFR = EGFR (UniProt P00533); assay: as above

binding (GRB2): no binding
binding (EGFR): no binding
B1: MOB1 (protein, UniProt Q9H8S9 1-216)
chain: MSFLFSSRSSKTFKPKKNIPEGSHQYELLKHAEATLGSGNLRQAVMLPEGEDLNEWIAVNTVDFFNQINMLYGTITEFCTEASCPVMSAGPRYEYHWADGTNIKKPIKCSAPKYIDYLMTWVQDQLDDETLFPSKIGVPFPKNFMSVAKTILKRLFRVYAHIYHQHFDSVMQLQEEAHLNTSFKHFIFFVQEFNLIDRRELAPLQELIEKLGSKDR
